Measurements taken from publication PMC11742723, “The clinical-stage drug BTZ-043 accumulates in murine tuberculosis lesions and efficiently acts against Mycobacterium tuberculosis” (Nature Communications, 2025).
“And” between values parts separate entries of the source, which are not always exact repeats. Identical values can stand only once. Further values from the same series stand in other lists.

Experiments:
Mtb H37Rv = experiment: BTZ-043 dose-fractionation study in Mtb-infected BALB/c mice (lung CFU); format: in vivo, Mycobacterium tuberculosis; settings: 6 weeks of treatment, individual female mice
[1] = LCM coupled LC-MS/MS of necrotic granulomas and non-necrotic regions; format: in vivo, IL-13tg mice; settings: for ng BTZ-043 / mg tissue: LCM samples of mouse KW116 B11#1 (female)
Protocol: Necrotic granulomas and non-necrotic regions were dissected from 2 to 3 γ−irradiated serial lung cryosections (thickness: 12 µm) using a PALM Microbeam (Zeiss, Oberkochen, Germany). Laser-dissected tissues were captured in an ascorbic acid solution (2.5 mg/mL) to prevent the degradation of BTZ-043 and stored at -80 °C. Samples were thawed on ice before drying in the SpeedVac. For reconstitution 80 µL of an 80% ACN/ 20% FA, containing 20 ng/mL reserpine and d4-BTZ-043, were added. The samples were vortexed for 1 min and kept in an ultrasonic bath for 3 min. Subsequently, the samples were centrifuged (10 min, 15,000 × g). The supernatant was transferred into a glass vial and 5 µL was injected into the LC. The LC settings and MS parameters were the same as described for the tissue mimetics (Supplementary Methods). As internal standard d4-BTZ-043 was utilized, with the m/z-transitions 436.0 → 86.0 (cone voltage of 30 V, collision energy of 30 eV, dwell time of 0.2 s) as quantifier. With the expected very low concentrations of the analyte in the LCM material, the deuterated standard was applied to better mimic matrix effects and recovery for this analysis. For calibration curve preparation lung homogenate from drug-naïve mice was added to 80% ACN/20% FA (1%), containing reserpine (as QC) and d4-BTZ-043 (20 ng/mL per sample) to the final solution containing about 0.44 µg tissue/mL, which equals the average weight of the obtained material of the LCM. After centrifugation (5 min, 15,000 × g) the supernatant was spiked with BTZ-043 to yield a calibration curve ranging from 0.00015–0.025 µg/mL.

[2] = 2 h after administration; mouse KW116 B9#1 (male); individual cryosections
[3] = MALDI imaging and penetration analysis in centrally necrotizing granulomas
[4] = LCM flakes from granulome area (granuloma), IL-13tg mouse lung cryosections, 4h post administration, listed as BTZ

Q: What does the source list for `C[C@H]1COC2(CCN(c3nc(=O)c4cc(C(F)(F)F)cc([N+](=O)[O-])c4s3)CC2)O1` [BTZ-043]?
A: pulmonary CFU counts / mouse (Mtb H37Rv; 2.5 mg/kg BTZ-043 QD): 157501 CFU counts / mouse; pulmonary CFU counts / mouse (Mtb H37Rv; 5 mg/kg BTZ-043 BID): 21501 CFU counts / mouse and 4501 CFU counts / mouse and 12501 CFU counts / mouse and 8001 CFU counts / mouse; pulmonary CFU counts / mouse (Mtb H37Rv; 5 mg/kg BTZ-043 QD): 117501 CFU counts / mouse and 42501 CFU counts / mouse; pulmonary CFU counts / mouse (Mtb H37Rv; 10 mg/kg BTZ-043 BID): 2001 CFU counts / mouse and 501 CFU counts / mouse and 1501 CFU counts / mouse and 8501 CFU counts / mouse; pulmonary CFU counts / mouse (Mtb H37Rv; 10 mg/kg BTZ-043 QD): 42501 CFU counts / mouse and 37501 CFU counts / mouse and 24001 CFU counts / mouse; pulmonary CFU counts / mouse (Mtb H37Rv; 25 mg/kg BTZ-043 BID): 301 CFU counts / mouse (2×) and 201 CFU counts / mouse and 251 CFU counts / mouse; pulmonary CFU counts / mouse (Mtb H37Rv; 25 mg/kg BTZ-043 QD): 4501 CFU counts / mouse and 4901 CFU counts / mouse (2×) and 12501 CFU counts / mouse; pulmonary CFU counts / mouse (Mtb H37Rv; 50 mg/kg BTZ-043 BID): 201 CFU counts / mouse and 251 CFU counts / mouse and 2751 CFU counts / mouse and 1151 CFU counts / mouse; pulmonary CFU counts / mouse (Mtb H37Rv; 50 mg/kg BTZ-043 QD): 801 CFU counts / mouse and 2501 CFU counts / mouse and 901 CFU counts / mouse and 101 CFU counts / mouse; pulmonary CFU counts / mouse (Mtb H37Rv; 100 mg/kg BTZ-043 QD): 426 CFU counts / mouse and 226 CFU counts / mouse and 1101 CFU counts / mouse and 551 CFU counts / mouse; pulmonary CFU counts / mouse (Mtb H37Rv; 250 mg/kg BTZ-043 QD): 31 CFU counts / mouse and 101 CFU counts / mouse and 151 CFU counts / mouse and 51 CFU counts / mouse; ng/mg lung tissue, technical replicate 1 [1, 4]: 0.369 ng/mg lung tissue and 0.458 ng/mg lung tissue and 0.813 ng/mg lung tissue; ng/mg lung tissue, technical replicate 2 [1, 4]: 0.870 ng/mg lung tissue and 0.482 ng/mg lung tissue; ng BTZ-043 / mg tissue ([1]; necrotic granuloma): 0.66 ng / mg tissue and 0.65 ng / mg tissue and 0.43 ng / mg tissue; ng BTZ-043 / mg tissue ([1]; non-necrotic region): 0.34 ng / mg tissue and 0.38 ng / mg tissue and 0.30 ng / mg tissue; ng BTZ-043 / mg cryosection [2]: 1.06 ng / mg cryosection; Mean intensity ([3]; Left Granuloma, Distance 35 μm): 236.17; Mean intensity ([3]; Left Granuloma, Distance 45 μm): 282.39; Mean intensity ([3]; Left Granuloma, Distance 55 μm): 310.51; Mean intensity ([3]; Left Granuloma, Distance 65 μm): 324.23; Mean intensity ([3]; Left Granuloma, Distance 75 μm): 346.18; Mean intensity ([3]; Left Granuloma, Distance 85 μm): 367.03; Mean intensity ([3]; Left Granuloma, Distance 95 μm): 388.03; Mean intensity ([3]; Left Granuloma, Distance 105 μm): 370.88; Mean intensity ([3]; Left Granuloma, Distance 115 μm): 377.58; Mean intensity ([3]; Left Granuloma, Distance 125 μm): 383.7; Mean intensity ([3]; Left Granuloma, Distance 135 μm): 371.16; Mean intensity ([3]; Left Granuloma, Distance 145 μm): 401.4; Mean intensity ([3]; Left Granuloma, Distance 155 μm): 392.24; Mean intensity ([3]; Left Granuloma, Distance 165 μm): 371.48; Mean intensity ([3]; Left Granuloma, Distance 175 μm): 382.06; Mean intensity ([3]; Left Granuloma, Distance 185 μm): 388.34; Mean intensity ([3]; Left Granuloma, Distance 195 μm): 405.53; Mean intensity ([3]; Left Granuloma, Distance 205 μm): 387.79; Mean intensity ([3]; Left Granuloma, Distance 215 μm): 399.58; Mean intensity ([3]; Left Granuloma, Distance 225 μm): 383.92; Mean intensity ([3]; Left Granuloma, Distance 235 μm): 377.36; Mean intensity ([3]; Left Granuloma, Distance 245 μm): 373.48; Mean intensity ([3]; Left Granuloma, Distance 255 μm): 386.55; Mean intensity ([3]; Left Granuloma, Distance 265 μm): 359.62; Mean intensity ([3]; Left Granuloma, Distance 275 μm): 353.17; Mean intensity ([3]; Left Granuloma, Distance 285 μm): 377.6; Mean intensity ([3]; Left Granuloma, Distance 295 μm): 355; Mean intensity ([3]; Left Granuloma, Distance 305 μm): 371.92; Mean intensity ([3]; Left Granuloma, Distance 315 μm): 340.38; Mean intensity ([3]; Left Granuloma, Distance 325 μm): 368.57; Mean intensity ([3]; Left Granuloma, Distance 335 μm): 369.17; Mean intensity ([3]; Left Granuloma, Distance 345 μm): 346.57; Mean intensity ([3]; Left Granuloma, Distance 355 μm): 331.68; Mean intensity ([3]; Left Granuloma, Distance 365 μm): 311.31; Mean intensity ([3]; Left Granuloma, Distance 375 μm): 293.47; Mean intensity ([3]; Left Granuloma, Distance 385 μm): 306.24; Mean intensity ([3]; Left Granuloma, Distance 395 μm): 284.78; Mean intensity ([3]; Left Granuloma, Distance 405 μm): 259.38; Mean intensity ([3]; Left Granuloma, Distance 415 μm): 258.04; Mean intensity ([3]; Left Granuloma, Distance 425 μm): 238.33; Mean intensity ([3]; Left Granuloma, Distance 435 μm): 228.24; Mean intensity ([3]; Left Granuloma, Distance 445 μm): 200.86; Mean intensity ([3]; Left Granuloma, Distance -455 μm): 59.166; Mean intensity ([3]; Left Granuloma, Distance -465 μm): 58.773; Mean intensity ([3]; Left Granuloma, Distance -475 μm): 59.938; Mean intensity ([3]; Left Granuloma, Distance -485 μm): 61.183; Mean intensity ([3]; Left Granuloma, Distance -495 μm): 60.107; Mean intensity ([3]; Right Granuloma, Distance 25 μm): 246.96; Mean intensity ([3]; Right Granuloma, Distance 35 μm): 285.28; Mean intensity ([3]; Right Granuloma, Distance 45 μm): 285.32; Mean intensity ([3]; Right Granuloma, Distance 55 μm): 285.66; Mean intensity ([3]; Right Granuloma, Distance 65 μm): 263.2; Mean intensity ([3]; Right Granuloma, Distance 75 μm): 269.9; Mean intensity ([3]; Right Granuloma, Distance 85 μm): 264.64; Mean intensity ([3]; Right Granuloma, Distance 95 μm): 262.82; Mean intensity ([3]; Right Granuloma, Distance 105 μm): 237.99; Mean intensity ([3]; Right Granuloma, Distance 115 μm): 232.53; Mean intensity ([3]; Right Granuloma, Distance 125 μm): 217.71; Mean intensity ([3]; Right Granuloma, Distance 135 μm): 200.2; Mean intensity ([3]; Right Granuloma, Distance 145 μm): 196.76; Mean intensity ([3]; Right Granuloma, Distance 155 μm): 171.73; Mean intensity ([3]; Right Granuloma, Distance 165 μm): 157.99; Mean intensity ([3]; Right Granuloma, Distance 175 μm): 141.92; Mean intensity ([3]; Right Granuloma, Distance 185 μm): 149.28; Mean intensity ([3]; Right Granuloma, Distance 195 μm): 127.55; Mean intensity ([3]; Right Granuloma, Distance 205 μm): 110.03; Mean intensity ([3]; Right Granuloma, Distance 215 μm): 109; Mean intensity ([3]; Right Granuloma, Distance 225 μm): 107.72; Mean intensity ([3]; Right Granuloma, Distance 235 μm): 104.5; Mean intensity ([3]; Right Granuloma, Distance 245 μm): 85.525; Mean intensity ([3]; Right Granuloma, Distance 255 μm): 86.627; Mean intensity ([3]; Right Granuloma, Distance 265 μm): 83.831; Mean intensity ([3]; Right Granuloma, Distance 275 μm): 57.766; Mean intensity ([3]; Right Granuloma, Distance 285 μm): 61.956; Mean intensity ([3]; Right Granuloma, Distance 295 μm): 41.615; Mean intensity ([3]; Right Granuloma, Distance 305 μm): 38.157; Mean intensity ([3]; Right Granuloma, Distance 315 μm): 32.303; Mean intensity ([3]; Right Granuloma, Distance 325 μm): 44.171; Mean intensity ([3]; Right Granuloma, Distance 335 μm): 27.125; Mean intensity ([3]; Right Granuloma, Distance 345 μm): 33.852; Mean intensity ([3]; Right Granuloma, Distance 355 μm): 24.948; Mean intensity ([3]; Right Granuloma, Distance 365 μm): 44.659; Mean intensity ([3]; Right Granuloma, Distance 375 μm): 25.156; Mean intensity ([3]; Right Granuloma, Distance 385 μm): 0; Mean intensity ([3]; Right Granuloma, Distance -455 μm): 48.937; Mean intensity ([3]; Right Granuloma, Distance -465 μm): 54.472; Mean intensity ([3]; Right Granuloma, Distance -475 μm): 49.857; Mean intensity ([3]; Right Granuloma, Distance -485 μm): 45.472; Mean intensity ([3]; Right Granuloma, Distance -495 μm): 40.234
